From PubChem BioAssay AID1671190 (National Center for Advancing Translational Sciences (NCATS), 2021)
In all, about 580,000 compounds went through this assay and about 6,100 (1.1%) were called active. The inconclusive results got no clear call from the source; some entries with a clear call stand among them for comparison. The call rests on the fitted dose curve; in most records, active means well fitted inhibition curve with a large enough effect; inconclusive means small, poorly fitted or top-dose-only effect, or another doubt; inactive means no such curve, though single readings can be large or run the other way. A potency beside an inconclusive call is a rough fit, not a confirmed value.

The chains behind the UniProt entries cited, without tags or fusion partners. Where a name states a change or a piece, a line headed by the entry shows the natural chain unless it says otherwise.
UniProt P18054: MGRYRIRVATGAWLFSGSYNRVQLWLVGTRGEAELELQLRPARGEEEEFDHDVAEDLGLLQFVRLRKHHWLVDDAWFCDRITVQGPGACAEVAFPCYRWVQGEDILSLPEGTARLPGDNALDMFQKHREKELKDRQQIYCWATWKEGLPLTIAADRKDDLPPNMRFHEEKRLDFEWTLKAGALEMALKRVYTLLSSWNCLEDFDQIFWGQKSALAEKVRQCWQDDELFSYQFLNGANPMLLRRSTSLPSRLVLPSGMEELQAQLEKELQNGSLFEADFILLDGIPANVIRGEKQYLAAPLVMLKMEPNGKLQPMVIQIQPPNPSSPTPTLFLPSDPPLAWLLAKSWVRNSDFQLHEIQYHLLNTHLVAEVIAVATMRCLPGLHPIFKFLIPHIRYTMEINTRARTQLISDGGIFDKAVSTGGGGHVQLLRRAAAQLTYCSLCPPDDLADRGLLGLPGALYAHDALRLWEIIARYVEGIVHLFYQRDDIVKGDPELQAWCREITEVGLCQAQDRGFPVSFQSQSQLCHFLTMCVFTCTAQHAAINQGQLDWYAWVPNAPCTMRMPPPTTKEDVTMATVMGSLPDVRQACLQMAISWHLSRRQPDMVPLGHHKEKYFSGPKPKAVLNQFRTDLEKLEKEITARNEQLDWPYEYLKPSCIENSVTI

Molecular target: Polyunsaturated fatty acid lipoxygenase ALOX12 (Homo sapiens) (UniProt P18054)
Assay: Primary qHTS assay for inhibitors of human arachidonate 12S-lipoxygenase (ALOX12): Round 2
Details: purified 12hLO, xylenol orange hydroperoxide absorbance; series mostly up to 108 µM
Method in brief: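 Purified human 12hLO at 150 nM in 25 mM Hepes, 0.01% Triton X-100, pH 7.0, preincubated 15 min at room temperature with compound. Reaction started with 40 uM arachidonic acid, 30 min at room temperature. Hydroperoxide measured by Fe-xylenol orange, 573/405 nm absorbance ratio.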
Potency means the concentration at half of the fitted maximal effect.

Row | Structure (SMILES) | Potency
1 | CN(C)c1ccc(-c2nnc(-c3cccnc3)o2)cc1 | inconclusive: 0.398 µM [inhibitor, full curve, poor fit]
2 | CCCN(CC#Cc1ccccc1)CCC | inconclusive: 35.5 µM [inhibitor, partial curve, poor fit]
3 | COc1ccccc1C(=O)N1CCN(c2oc(-c3ccccc3OC)nc2C#N)CC1 | inactive
4 | Cc1cccc2sc(NC(=O)NC3CC(=O)N(c4ccc5c(c4)OCCO5)C3)nc12 (centres undefined) | inconclusive: 35.5 µM [inhibitor, partial curve, poor fit]
5 | O=C(NCCc1noc(-c2ccncc2)n1)c1ccccc1 | active: 8.91 µM
6 | Cc1ccc2nc(N/N=C\c3ccc([N+](=O)[O-])o3)nc(-c3ccccc3)c2c1 | inactive
7 | N#Cc1c(NCCO)ccc([N+](=O)[O-])c1NCCO | inconclusive: 35.5 µM [inhibitor, full curve, poor fit]
8 | C=C(C)COc1ccc(-c2[nH]ncc2-c2ccc(OC)c(OC)c2)c(O)c1 | inconclusive: 70.8 µM [inhibitor, single point]
9 | O=C(O)CCc1ccc(-c2ccc(F)cc2)n1Cc1ccco1 | inconclusive: 50.1 µM [inhibitor, partial curve, poor fit]
10 | Cc1ccc(C)c2c(=O)cc(CSc3nnc(-c4cccc(F)c4)n3C)[nH]c12 | inconclusive: 39.8 µM [inhibitor, partial curve, poor fit]
11 | COc1ccc(-c2csc(Nc3cccc(C)n3)n2)cc1 | inconclusive: 0.1 µM [inhibitor, full curve, poor fit]
12 | O=C(CCC1CCCC1)Nc1cccc2ccccc12 | inactive
13 | CN1CCc2c(sc3nc(SCC(N)=O)n(-c4ccccc4)c(=O)c23)C1 | inactive
14 | CCC1c2ccsc2CCN1C(=O)C1CCN(S(=O)(=O)c2ccc(C(C)C)cc2)CC1 (centres undefined) | inconclusive: 50.1 µM [inhibitor, partial curve, poor fit]
15 | c1ccc(NC2=NCCN2CCCC2CCCC2)cc1 | inconclusive: 2.51 µM [inhibitor, full curve, poor fit]
16 | CC(=O)Nc1ccc(CNC2CCCCC2C(F)(F)F)cc1 (centres undefined) | inconclusive: 4.47 µM [inhibitor, full curve]
17 | CCc1cc2c(c(CC)n1)CCC(=O)N2Cc1ccc(-c2ccccc2-c2nn[nH]n2)cc1 | inconclusive: 31.6 µM [inhibitor, partial curve, poor fit]
18 | Cc1cc(C)cc(C(=O)Nc2ccc(N(C)C)cc2)c1 | inconclusive: 7.08 µM [inhibitor, partial curve, poor fit]
19 | N#C/C(=C\Nc1ccccc1O)c1nc2ccccc2o1 | inconclusive: 50.1 µM [inhibitor, partial curve, poor fit]
20 | Cc1ccc(-c2csc3c2NC(=O)CC3c2ccc(C)cc2)cc1 (centres undefined) | inconclusive: 79.4 µM [inhibitor, partial curve, poor fit]
21 | CCCCc1ccc(NC(=S)NNC=O)cc1 | inconclusive: 35.5 µM [inhibitor, partial curve, poor fit]
22 | CCO[C@H]1CN(C(=O)CCc2nc3c(C)c(C)ccc3[nH]2)C[C@@H]1O | inconclusive: 25.1 µM [inhibitor, full curve]

Row | Structure (SMILES) | Potency
23 | CN(C)CCC(=O)N1c2ccccc2Sc2ccc(Cl)cc21 | inactive
24 | O=C1CCCC/C1=C/Nc1ccc(C(=O)O)cc1 | inactive
25 | Cc1cccc(NC(=O)Cn2c(=O)n(Cc3nc(-c4ccccc4)no3)c(=O)c3ccccc32)c1 | inconclusive: 112 µM [inhibitor, partial curve, poor fit]
26 | COCC(=O)N(CCc1ccc(OC)cc1)Cc1nc2ccccc2c(=O)[nH]1 | inactive
27 | CCCN(CCC)C(=O)CCCC(=O)N(C)Cc1ccsc1 | inactive
28 | N#C/C(=N\Nc1ccc(Cl)cc1)C(=O)c1ccccc1 | inconclusive: 4.47 µM [inhibitor, full curve, poor fit]
29 | COc1ccccc1C(=O)Oc1ccc(F)cc1C(=O)/C=C/c1ccccc1Cl | inactive
30 | Cc1ccc(C2=C(O)C(=O)N(Cc3ccco3)C2c2ccc(C(C)C)cc2)cc1 (centres undefined) | inconclusive: 0.501 µM [inhibitor, full curve, poor fit]
31 | COc1cc(NC(=O)Nc2cc(-c3nc4cc(C)ccc4o3)ccc2OC)cc(OC)c1 | inconclusive: 50.1 µM [inhibitor, partial curve, poor fit]
32 | Cc1ccccc1SCC(=O)OCC(=O)NCCNC(=O)COC(=O)CSc1ccccc1C | inconclusive: 79.4 µM [inhibitor, single point]
33 | CC(Nc1ncnc2nc[nH]c12)c1ccccc1 (centres undefined) | inactive
34 | COc1cccc2cc(-c3nc(-c4nonc4N)no3)c(=O)oc12 | inactive
35 | CCn1c(C)nc2cc(C(=O)NNC(=S)Nc3ccccc3)ccc21 | inactive
36 | O=C([C@@H]1C[C@H](F)CN1C(=O)NC1CCCC1)N1CCc2ccccc2C1 | inactive
37 | O=S(=O)(c1ccc(Cl)cc1)N1CCSC1c1ccco1 (centres undefined) | inconclusive: 79.4 µM [inhibitor, single point]
38 | Cc1nn2c(c1-c1ccccc1C(C)C)N(CCC(C)C)CCC2 | active: 50.1 µM
39 | c1ccc(Oc2ncnc3scc(-c4ccc(-c5ccccc5)cc4)c23)cc1 | inconclusive: 31.6 µM [inhibitor, single point]
40 | CNC(=O)/C(=C/c1cc2ccc(OC)cc2nc1Cl)NC(=O)c1ccccc1 | inconclusive: 50.1 µM [inhibitor, partial curve, poor fit]
41 | C[C@@H](O)[C@@H]1NC(=O)c2cc([N+](=O)[O-])cc(I)c2NCC[C@@H](C(N)=O)NC(=O)CNC1=O | inconclusive: 56.2 µM [inhibitor, partial curve, poor fit]
42 | CC(C)CCC(CC(C)O)C(=O)NNC(=S)Nc1ccccc1 (centres undefined) | inconclusive: 112 µM [inhibitor, partial curve, poor fit]
43 | COc1ccc(CNC(=O)c2cnc3sc4cc(OC)ccc4n3c2=O)cc1 | inactive
44 | Cc1cc(OCC(=O)NCCCN2CCOCC2)cc(C)c1Cl | inconclusive: 126 µM [inhibitor, single point]

Entries 36 through 37 of the list above:
Row | Structure (SMILES) | Potency
36 | O=C([C@@H]1C[C@H](F)CN1C(=O)NC1CCCC1)N1CCc2ccccc2C1 | inactive
37 | O=S(=O)(c1ccc(Cl)cc1)N1CCSC1c1ccco1 (centres undefined) | inconclusive: 79.4 µM [inhibitor, single point]
